The values that follow come from PubChem BioAssay AID445 (National Center for Advancing Translational Sciences (NCATS), 2006).

Molecules are shown by their SMILES. Some of the results follow. These are further read-outs of the screen, such as a control signal, another cell line or another target. No call is given for them. The list favours compounds with an active or inconclusive main result. The note in brackets gives the kind of curve behind each potency; many fits are weak.

The nature of the assay: IkB Signaling. Conditions: ABC-DLBCL IkBa-CBG/CBR dual luciferase ratio (green luciferase fused to IkBa over red control in OCI-Ly3 lymphoma cells), 4 h. The gist of the method:
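Curves were fitted separately to fusion (green), unfused (red) and ratio luminescence, then classed by r2, magnitude and activity. Cells: OCI-Ly3, 4 h compound plus doxycycline at 37C; 10 uM MG-132 defined full response.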

Where [1] appears, read: measured here: control luc red channel unless noted.
Setting [2] is: measured here: IkB-luc green channel.
[3] abbreviates: measured here: control luc red channel.

For `O=C(CC1N=C2c3ccccc3N=C(SCc3ccc(Cl)cc3)N2C1=O)NCc1cccs1` (stereo not drawn), the AC50 under setting [1] is 12.6 µM [falling, partial curve]. Regarding `Cc1ccc(-n2c(Cc3ccccc3)nnc2SCc2nc(-c3cccs3)no2)cc1`, the AC50 under setting [1] is 31.6 µM [falling, partial curve].

On to `O=c1oc(-c2cccs2)nc2scc(-c3cccs3)c12`, for which, under setting [1], the AC50 is 3.98 µM [falling, partial curve]. As for `Cc1ccc(C)c(N2CCN(C(=O)c3ccc(NC(=O)c4nsc5ccccc45)cc3)CC2)c1`, the AC50 under setting [1] was 0.794 µM [falling, full curve].

As to `COc1cc(C(=O)Oc2c(Sc3ccccc3)c(C)nn2-c2ccccc2)cc(OC)c1OC`, the AC50 under setting [1] was 7.94 µM [falling, full curve]. Regarding `Cc1ccc(/C=C/c2onc(C)c2S(=O)(=O)N2CCC(C(=O)Nc3ccc(C)c(N(C)C)c3)CC2)cc1`, the AC50 under setting [1] is 0.794 µM [falling, full curve, poor fit]. Still for that read-out and setting: under `Cc1ccc(CNC(=O)CCCCCn2c(=O)[nH]c3ccccc3c2=O)cc1` stands 0.398 µM [falling, full curve, poor fit]; under `Cc1nn(-c2ccccc2)c(OC(=O)C(C)C)c1Sc1ccc(Cl)cc1`, 3.16 µM [falling, partial curve]; under `CC1CCCN(CCCNC(=O)c2ccc3c(c2)N(Cc2ccccc2F)C(=O)c2ccccc2S3(=O)=O)C1` (stereo not drawn), 31.6 µM [falling, single point]. Regarding `Oc1c(CN2CCCCC2)cc(Br)c2cccnc12`, the AC50 under setting [2] was 12.6 µM [rising, partial curve] and the AC50 under setting [3] was 12.6 µM [falling, partial curve].

Take `Cc1ccccc1-c1nc(CN2CCC(C(=O)NCc3ccccc3Cl)CC2)c(C)o1`: under setting [1], the AC50 is 20 µM [falling, partial curve]. For the compound `CC(C)(C)c1ccc(NC(=O)C2CCCN(c3cnccn3)C2)cc1` (stereo not drawn), under setting [1], the AC50 was 25.1 µM [falling, partial curve].

Take `CCOc1ccc(N2CC(NC(=O)CCc3ccccc3)CC2=O)cc1` (stereo not drawn): the AC50 under setting [1] is 3.98 µM [falling, single point]. As for `CCn1c(C)c(C2N3CC4(C)CN2CC(C)(C3)C4=O)c2ccccc21` (stereo not drawn), the AC50 under setting [1] is 39.8 µM [falling, single point].

As for `O=C(CC(Sc1ccccc1)c1cccs1)c1ccco1` (stereo not drawn), the AC50 under setting [1] is 39.8 µM [rising, single point] [measured here: IkB-luc green channel]. Consider `CCC(OC(=O)c1cc2sccc2n1C)C(=O)NCC1CCCO1` (stereo not drawn), for which, under setting [1], the AC50 is 39.8 µM [falling, single point]. For `CC(=O)c1cccc(-n2c(=O)c3c4c(sc3n(CC(=O)c3ccccc3)c2=O)CN(C(C)=O)CC4)c1`, the AC50 under setting [1] is 3.98 µM [rising, single point]. On to `Cc1nc(C)c(-c2ccc(SCC(=O)Nc3ccc(Br)cc3)nn2)s1`, for which the AC50 under setting [1] is 0.316 µM [falling, partial curve, poor fit]. `Cc1ccc2[nH]c3c(c2c1)CN(C(=O)CN1CCN(Cc2ccc4c(c2)OCO4)CC1)CC3`: under setting [1], the AC50 is 12.6 µM [falling, partial curve]. `CN(c1ccc(C(=O)Nc2nccs2)cc1)S(=O)(=O)c1ccccc1`: under setting [1], the AC50 was 15.8 µM [falling, partial curve]. Regarding `CC(=O)c1cc2c(cc1N/C(=N/S(=O)(=O)c1ccc(Cl)cc1)c1ccc(F)cc1)OCO2`, the AC50 under setting [1] was 5.01 µM [rising, partial curve].

Turning to `CCOC(=O)C1CCCN(C(=O)c2cc3c(=O)[nH]c4ccc(C)cc4c3s2)C1` (stereo not drawn), the AC50 under setting [1] is 39.8 µM [falling, single point]. As for `CN(Cc1ccccc1)S(=O)(=O)c1cc(Br)cc2c1N(C(=O)C1CC1)CC2`, under setting [1], the AC50 is 3.98 µM [falling, full curve].

Regarding `CCN(CCCNC(=O)CN1N=C(c2ccc(OC)cc2)CCC1=O)c1cccc(C)c1`, the AC50 under setting [1] was 39.8 µM [falling, single point].

As for `Cc1cccc(N2CCN(C(=O)c3cn(CC(C)C)c(=O)c4c3c3ccccc3n4C)CC2)c1C`, under setting [1], the AC50 is 20 µM [falling, partial curve]. On to `Cc1ccc(-c2noc(CNC(=O)c3ccc(Br)o3)n2)cc1`, for which, under setting [1], the AC50 is 15.8 µM [falling, partial curve, poor fit]. The same measure, in the same setting: the figure for `CC(=O)c1cccc(NC(=O)c2cc(-c3ccc(Cl)s3)nc3ccccc23)c1` is 2 µM [falling, full curve, poor fit]. With `COc1ccc(NC(=O)CC2C(=O)N(c3cccc(C)c3)C(=O)N2C2CCCCC2)cc1` (stereo not drawn), under setting [1], the AC50 was 39.8 µM [falling, single point].

As to `c1nc(N2CCOCC2)c2c3c(sc2n1)CCCC3`, under setting [1], the AC50 was 15.8 µM [falling, partial curve].

`COc1cccc(C(=O)Nc2ccc(-c3cc(C(F)(F)F)nn3-c3ccccc3)cc2)c1`: under setting [1], the AC50 was 20 µM [falling, partial curve]. As to `CC(C)N(C(=O)CSc1nnc(-c2cc3ccccc3cc2O)n1Cc1ccco1)C(C)C`, the AC50 under setting [1] is 15.8 µM [falling, partial curve].

With `CCOc1ccccc1CNS(=O)(=O)c1ccc2[nH]c(=O)ccc2c1`, the AC50 under setting [1] was 39.8 µM [falling, single point]. For the compound `Cc1ccc(C)c(CN2C(=O)N(c3cc(Cl)ccc3C)S(=O)(=O)c3ccccc32)c1`, the AC50 under setting [1] is 0.316 µM [falling, full curve]. As to `O=C(Nc1nc2ccccc2n1CCN1CCOCC1)c1cn(-c2ccccc2)nc1-c1ccccc1`, under setting [1], the AC50 was 10 µM [falling, partial curve]. In the case of `COc1ccccc1N1CCN(C(=O)Cn2cnc3onc(-c4ccc(F)cc4)c3c2=O)CC1`, under setting [1], the AC50 is 0.0398 µM [falling, full curve, poor fit].

`O=C(c1ccc2c(=O)n(CCc3ccccc3)c(=O)[nH]c2c1)N1CCN(c2ccc(F)cc2)CC1`: the AC50 under setting [1] is 5.01 µM [falling, partial curve]. With `COc1cccc(N2CC(NC(=O)c3ccco3)CC2=O)c1` (stereo not drawn), under setting [1], the AC50 is 6.31 µM [rising, single point]. For `CCOC(=O)CSc1nc2sc3c(c2c(=O)[nH]1)CCCC3`, the AC50 under setting [1] was 31.6 µM [rising, partial curve] [measured here: IkB-luc green channel]. `CCn1c(=O)[nH]c2cc(Cl)c(Cl)cc21`: under setting [1], the AC50 is 39.8 µM [falling, partial curve, poor fit]. Take `CCOc1ccccc1N(CC(=O)NCCSc1ccccc1)S(=O)(=O)c1ccccc1`: under setting [1], the AC50 was 10 µM [falling, partial curve]. Turning to `COc1ccccc1Cc1nc2ccccc2nc1SCC(=O)N(C)c1ccc(F)cc1`, under setting [1], the AC50 is 39.8 µM [falling, single point]. For `Cc1nnc(N2CCC(C(=O)NCCc3ccccc3Cl)CC2)c2nn(-c3ccccc3)c(C)c12`, the concentration at half-maximal activity (AC50) under setting [1] is 7.94 µM [falling, partial curve]. On to `COC(=O)c1sccc1NC(=O)c1cc2c(s1)CCCC2`, for which, under setting [1], the AC50 is 10 µM [falling, partial curve].

On to `Cc1cccc(N2CCN(C(=O)Nc3cn(CC(C)C)c(=O)c4ccccc34)CC2)c1C`, for which the AC50 under setting [1] is 39.8 µM [falling, single point].

As to `CCOC(=O)N1CCN(c2c(F)cc3[nH]c(=S)[nH]c3c2Br)CC1`, the AC50 reads like this: under setting [2], 25.1 µM [falling, partial curve]; under setting [3], 25.1 µM [falling, partial curve]. `CC(C)(C)c1ccc(-c2nc(SCCCOc3ccccc3)n3[nH]c(=O)cc3n2)cc1`: the AC50 under setting [1] was 39.8 µM [falling, single point]. Turning to `COc1ccc(-c2c3c(=O)n(C)c(=O)n(C)c3c3c(C)nc4ccccc4n23)cc1`, the AC50 under setting [1] was 0.126 µM [falling, partial curve]. As for `Cc1ccc(-c2nnc(SCc3cccc(C#N)c3)o2)cc1`, the half-maximal activity concentration (AC50) under setting [1] is 39.8 µM [falling, single point]. Take `COc1nc(N(c2ccccc2)c2ccccc2)nc(-n2ccnc2)n1`: the AC50 under setting [1] was 25.1 µM [falling, partial curve]. The same measure, in the same setting: the figure for `CCOC(=O)Cn1c(=O)n(-c2ccccc2OC)c2nc(-c3cccc(F)c3)nc(C(N)=O)c21` is 12.6 µM [falling, partial curve]; for `CCCCc1ccc(NC(=O)c2ccc(=O)n(Cc3cccc(C)c3)c2)cc1` it is 39.8 µM [falling, single point]; for `COc1ccc(-c2nc(C)c(CCNS(=O)(=O)c3cc(C)c(C)cc3C)s2)cc1` it is 39.8 µM [falling, single point]. For the compound `CN(C)CCNC(=O)c1ccc2c(=O)n3c(nc2c1)CCCCC3`, under setting [1], the AC50 is 5.01 µM [rising, partial curve]. Consider `COc1cccc(N2CCN(C(=O)CCc3c(C)nc4c(c3C)c(=O)n(C)c(=O)n4C)CC2)c1`, for which, under setting [1], the AC50 was 39.8 µM [falling, single point]. As to `Cc1ccccc1-n1c(SCc2ccc(Cl)cc2)nc2[nH]ncc2c1=O`, the AC50 under setting [1] is 39.8 µM [falling, single point]. The same measure, in the same setting: under `CCC(C)NC(=O)c1ccc2c(c1)N(Cc1ccccc1)C(=O)c1ccccc1S2` (stereo not drawn) stands 20 µM [falling, single point]; under `CCOc1ccc2[nH]c(=O)c(CN(Cc3nnnn3Cc3ccco3)C3CCCCC3)cc2c1`, 15.8 µM [falling, partial curve]. In the case of `Cc1cc(C)n(-c2nncc(-c3ccccc3)n2)n1`, the AC50 under setting [1] is 15.8 µM [falling, partial curve]. In the case of `CCc1ccccc1NC(=O)N(C)CCc1c(C)nn(C)c1C`, the AC50 under setting [1] is 0.316 µM [rising, full curve, poor fit]. On the same count and under the same terms, under `COC(=O)CCC(=O)Nc1cccc(Cl)c1` stands 10 µM [falling, partial curve, poor fit] [measured here: IkB-luc green channel]; under `Cc1ccc(-c2nc3sc(CCNC(=O)c4ccc(C)c(C)c4)c(C)n3n2)cc1`, 6.31 µM [falling, partial curve].
